According to paper PMC9839851:
These are yes or no findings as the source states them, for the method shown. In cells and extracts the contact can be indirect. A result given as binding can be weak or reduced; the word gives no strength.

Chains of the proteins cited; added tags and fusions are not shown. Lines headed by an entry give the natural chain unless they say otherwise; changes in a name come on top.
UniProt Q9WTL8: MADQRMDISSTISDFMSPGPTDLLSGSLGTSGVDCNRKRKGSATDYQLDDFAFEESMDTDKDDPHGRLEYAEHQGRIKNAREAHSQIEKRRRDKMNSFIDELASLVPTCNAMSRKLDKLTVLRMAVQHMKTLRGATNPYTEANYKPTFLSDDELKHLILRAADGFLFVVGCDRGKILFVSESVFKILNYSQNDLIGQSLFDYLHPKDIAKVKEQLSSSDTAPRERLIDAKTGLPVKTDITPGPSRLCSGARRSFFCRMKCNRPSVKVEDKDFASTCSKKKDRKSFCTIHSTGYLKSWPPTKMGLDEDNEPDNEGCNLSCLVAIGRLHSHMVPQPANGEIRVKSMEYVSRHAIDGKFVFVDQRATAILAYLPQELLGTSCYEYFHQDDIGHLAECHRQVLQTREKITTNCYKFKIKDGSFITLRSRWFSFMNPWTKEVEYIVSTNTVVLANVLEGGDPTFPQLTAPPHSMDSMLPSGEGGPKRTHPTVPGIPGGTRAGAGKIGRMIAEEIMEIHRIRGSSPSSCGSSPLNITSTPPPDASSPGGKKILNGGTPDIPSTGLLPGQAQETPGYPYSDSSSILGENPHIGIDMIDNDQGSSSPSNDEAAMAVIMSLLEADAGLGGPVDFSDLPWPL
UniProt P03953: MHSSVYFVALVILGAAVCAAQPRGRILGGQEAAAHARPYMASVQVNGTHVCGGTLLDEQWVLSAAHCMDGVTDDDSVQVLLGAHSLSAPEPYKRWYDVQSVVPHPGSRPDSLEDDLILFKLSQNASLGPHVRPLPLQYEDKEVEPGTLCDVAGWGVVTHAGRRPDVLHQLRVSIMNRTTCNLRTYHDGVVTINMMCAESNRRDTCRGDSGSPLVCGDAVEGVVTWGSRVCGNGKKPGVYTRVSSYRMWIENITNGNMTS

Target: BMAL1 (mouse (endogenous in eWAT)) (UniProt Q9WTL8)
Assay: co-IP; mouse eWAT homogenised in IP buffer (1x TBS, 1% triton, 10% glycerol); anti-BMAL1 immunoprecipitation overnight at 4 °C; Western blot for adipsin

## adipsin (from UniProt P03953)
  binding: binds
